Data: the supplement of paper PMC10331698
± gives the standard deviation of the averaged measurements. Most entries show no effect beyond the scatter of the controls.

How the values were obtained:
Assay in all cases: level (log10 ratio to DMSO vehicle control); higher = higher biomarker level / cell amount than vehicle control
[1] = compound: OCCCCC(F)(F)C(F)(F)C(F)(F)C(F)(F)F [4:4 Fluorotelomer alcohol]; settings: 2200 nM; in DMSO
Experimental: (§1)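 BioMAP Diversity Plus panel of 12 human primary cell co-culture systems (3C, 4H, LPS, SAg, BT, BF4T, BE3C, CASM3C, HDF3CGF, KF3CT, MyoF, Mphg). Compounds were added 1 h before stimulation and left for 24 h (MyoF 48 h; BT 72 h for soluble read-outs or 6 d for IgG). Biomarkers were read by ELISA, cytotoxicity by SRB, PBMC viability and proliferation by Alamar Blue. Each well value was divided by the mean of 8 DMSO control wells on the same plate and log10 transformed; duplicate blinded samples were tested at 4 concentrations.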

[2] = compound: OCC(F)(F)C(F)(F)C(F)(F)C(F)(F)C(F)(F)C(F)F [1H,1H,7H-Dodecafluoro-1-heptanol]; settings: 2200 nM; in DMSO
Experimental: as §1

[3] = compound: C=C(C)C(=O)OCC(F)(F)C(F)(F)C(F)(F)C(F)(F)C(F)(F)C(F)(F)C(F)(F)F; settings: in DMSO
Experimental: as §1

[4] = compound: FC(F)(F)C(F)(F)C(F)(F)CC1CO1 [1H,1H-Heptafluorobutyl epoxide]; settings: 2200 nM; in DMSO
Experimental: as §1

[5] = compound: O=S(=O)(F)C(F)(F)C(F)(F)C(F)(F)C(F)(F)C(F)(F)C(F)(F)C(F)(F)C(F)(F)F [Perfluorooctanesulfonyl fluoride]; settings: 2200 nM; in DMSO
Experimental: as §1

[6] = compound: C=CC(=O)OCC(F)(F)C(F)(F)C(F)(F)C(F)(F)C(F)(F)C(F)(F)C(F)(F)F [1H,1H-Perfluorooctyl acrylate]; settings: 2200 nM; in DMSO
Experimental: as §1

[7] = compound: C=CC(F)(F)C(F)(F)C(F)(F)C(F)(F)C(F)(F)C(F)(F)C(F)(F)C(F)(F)C=C [1,8-Divinylperfluorooctane]; settings: in DMSO
Experimental: as §1

[8] = compound: O=S(=O)(O)C(F)(F)C(F)(F)C(F)(F)C(F)(F)C(F)(F)C(F)(F)C(F)(F)C(F)(F)F [Potassium perfluorooctanesulfonate]; settings: 2200 nM; in DMSO
Experimental: as §1

[9] = compound: NC(=O)C(F)(F)C(F)(F)C(F)(F)C(F)F; settings: in DMSO
Experimental: as §1

[10] = compound: O=C(O)C(F)(F)C(F)(F)C(F)F [4H-Perfluorobutanoic acid]; settings: in DMSO
Experimental: as §1

[11] = compound: CO[Si](C)(CCC(F)(F)C(F)(F)C(F)(F)C(F)(F)C(F)(F)C(F)(F)F)OC [Dimethoxymethyl((perfluorohexyl)ethyl)silane]; settings: in DMSO
Experimental: as §1

[12] = compound: COC(=O)C(F)(F)C(F)(F)OC(F)(C(F)(F)F)C(F)(F)OC(F)=C(F)F [Methyl perfluoro(3-(1-ethenyloxypropan-2-yloxy)propanoate)]; settings: in DMSO
Experimental: as §1

[13] = compound: O=S(=O)(OCC(F)(F)F)C(F)(F)C(F)(F)C(F)(F)C(F)(F)F [2,2,2-Trifluoroethyl perfluorobutanesulfonate]; settings: 2200 nM; in DMSO
Experimental: as §1

Heptafluorobutyl iodide = compound: FC(F)(F)C(F)(F)C(F)(F)CI [Heptafluorobutyl iodide]; settings: 2200 nM; in DMSO
Experimental: as §1

[14] = compound: O=P(O)(O)CCC(F)(F)C(F)(F)C(F)(F)C(F)(F)C(F)(F)C(F)(F)F [2-(Perfluorohexyl)ethylphosphonic acid]; settings: 2200 nM; in DMSO
Experimental: as §1

Pentafluoropropionamide = compound: NC(=O)C(F)(F)C(F)(F)F [Pentafluoropropionamide]; settings: 2200 nM; in DMSO
Experimental: as §1

[15] = compound: NS(=O)(=O)C(F)(F)C(F)(F)C(F)(F)C(F)(F)C(F)(F)C(F)(F)C(F)(F)C(F)(F)F [Perfluorooctanesulfonamide]; settings: in DMSO
Experimental: as §1

[16] = compound: O=S(=O)(O)C(F)(F)C(F)(F)C(F)(F)C(F)(F)C(F)(F)C(F)(F)C(F)(F)C(F)(F)F [Perfluorooctanesulfonic acid]; settings: 2200 nM; in DMSO
Experimental: as §1

Row | Test System | level (log10) [1] | level (log10) [2] | level (log10) ([3]; 740 nM) | level (log10) ([3]; 2200 nM) | level (log10) [4] | level (log10) [5] | level (log10) [6] | level (log10) ([7]; 740 nM) | level (log10) ([7]; 2200 nM) | level (log10) [8] | level (log10) ([9]; 2200 nM) | level (log10) ([9]; 6700 nM) | level (log10) ([9]; 20000 nM) | level (log10) ([9]; 60000 nM) | level (log10) ([10]; 2200 nM) | level (log10) ([10]; 6700 nM) | level (log10) ([10]; 20000 nM) | level (log10) ([10]; 60000 nM) | level (log10) ([11]; 740 nM) | level (log10) ([11]; 2200 nM) | level (log10) ([12]; 740 nM) | level (log10) ([12]; 2200 nM) | level (log10) [13] | level (log10) (Heptafluorobutyl iodide) | level (log10) [14] | level (log10) (Pentafluoropropionamide) | level (log10) ([15]; 2200 nM) | level (log10) ([15]; 6700 nM) | level (log10) ([15]; 20000 nM) | level (log10) [16]
1 | 4H:CD87/uPAR | -0.0195 ± 0.012 | -0.0175 ± 0.033 | 0 ± 0.011 | -0.015 ± 0.0057 | -0.042 ± 0.095 | 0.0195 ± 0.052 | 0.0025 ± 0.046 | 0.0095 ± 0.022 | -0.029 ± 0.027 | 0.0605 ± 0.057 | 0.0305 ± 0.0092 | 0.0335 ± 0.013 | 0.044 ± 0.033 | 0.006 ± 0.038 | -0.0095 ± 0.011 | -0.0265 ± 0.025 | -0.0065 ± 0.0035 | -0.004 ± 0.044 | 0.014 ± 0.045 | -0.0105 ± 0.021 | 0.006 ± 0.086 | 0.0005 ± 0.019 | 0.0175 ± 0.037 | 0.0145 ± 0.00071 | -0.0315 ± 0.013 | 0.0095 ± 0.023 | 0.037 ± 0.0071 | 0.0155 ± 0.0064 | -0.026 ± 0.028 | 0.079 ± 0.069
2 | 4H:CD106/VCAM-1 | 0.032 ± 0.0028 | 0.014 ± 0.018 | 0.014 ± 0.028 | -0.0145 ± 0.011 | 0.0255 ± 0.00071 | 0.0135 ± 0.094 | 0.0255 ± 0.057 | 0.016 ± 0.0042 | -0.0195 ± 0.025 | 0.008 ± 0.028 | -0.0125 ± 0.022 | -0.0145 ± 0.005 | -0.021 ± 0.0085 | -0.007 ± 0.0057 | 0.002 ± 0.0014 | -0.003 ± 0.014 | -0.0165 ± 0.011 | 0.0065 ± 0.011 | 0.0085 ± 0.033 | 0.0065 ± 0.046 | 0.025 ± 0.016 | -0.0055 ± 0.005 | -0.013 ± 0.013 | -0.011 ± 0.028 | 0.0155 ± 0.012 | 0.0235 ± 0.0078 | 0.0205 ± 0.00071 | 0.013 ± 0.034 | -0.0335 ± 0.044 | 0.017 ± 0.0071
3 | 4H:SRB | -0.0025 ± 0.00071 | -0.0065 ± 0.0021 | 0.0185 ± 0.012 | -0.0005 ± 0.025 | 0.0075 ± 0.011 | 0.0045 ± 0.0078 | 0.0095 ± 0.016 | 0.009 ± 0.0071 | 0.009 ± 0.011 | -0.007 ± 0.0085 | -0.019 ± 0.018 | -0.0195 ± 0.0078 | -0.0055 ± 0.005 | -0.017 ± 0.021 | 0.004 ± 0.014 | -0.0085 ± 0.0092 | -0.003 ± 0.0071 | 0.0055 ± 0.0035 | 0.01 ± 0.0057 | 0.016 ± 0.021 | 0.0135 ± 0.022 | -0.0075 ± 0.005 | 0.003 ± 0.0071 | -0.0015 ± 0.005 | -0.0105 ± 0.005 | 0.0145 ± 0.0021 | 0.0145 ± 0.018 | -0.005 ± 0.011 | -0.0815 ± 0.0021 | 0.006 ± 0.0099
4 | 4H:VEGFR2 | 0.015 ± 0.088 | 0.03 ± 0.059 | 0.0575 ± 0.037 | -0.0005 ± 0.016 | 0.01 ± 0.052 | 0.006 ± 0.054 | -0.0015 ± 0.032 | 0.0495 ± 0.077 | -0.0145 ± 0.061 | 0.0165 ± 0.0035 | 0.017 ± 0.0028 | 0 ± 0.0042 | -0.006 ± 0.0099 | -0.001 ± 0.054 | 0.0365 ± 0.021 | -0.0255 ± 0.015 | -0.005 ± 0.042 | 0.012 ± 0.05 | 0.0235 ± 0.044 | -0.0155 ± 0.021 | 0.014 ± 0.057 | -0.0115 ± 0.023 | 0.0145 ± 0.064 | 0.029 ± 0.024 | 0.0265 ± 0.0078 | 0.0585 ± 0.018 | 0.025 ± 0.018 | -0.0175 ± 0.035 | -0.006 ± 0.044 | -0.0295 ± 0.025
5 | BE3C:CD54/ICAM-1 | 0.011 ± 0.052 | 0.0005 ± 0.0092 | -0.0005 ± 0.015 | 0.0045 ± 0.0092 | 0.0045 ± 0.0035 | 0.007 ± 0.03 | 0.017 | 0.0055 ± 0.028 | 0.0045 ± 0.0064 | 0.013 ± 0.03 | -0.005 ± 0.0071 | -0.006 ± 0.0042 | -0.002 ± 0.0042 | 0.0155 ± 0.016 | 0.003 ± 0.023 | -0.0085 ± 0.0021 | -0.0245 ± 0.00071 | 0.0125 ± 0.033 | -0.0195 ± 0.005 | -0.0125 ± 0.0035 | -0.0005 ± 0.035 | -0.014 ± 0.011 | 0.0015 ± 0.012 | 0.007 | 0.0125 ± 0.021 | -0.017 ± 0.0014 | 0.0045 ± 0.0064 | -0.008 ± 0.016 | -0.001 ± 0.018 | 0.001 ± 0.02
6 | BE3C:CD87/uPAR | 0.0205 ± 0.071 | 0.008 ± 0.04 | 0.033 ± 0.037 | 0.006 ± 0.04 | 0.0165 ± 0.015 | -0.0035 ± 0.011 | -0.011 ± 0.0014 | 0.0045 ± 0.042 | -0.01 ± 0.035 | 0.0115 ± 0.071 | -0.013 ± 0.027 | -0.02 ± 0.011 | -0.0205 ± 0.0035 | -0.0145 ± 0.015 | 0.011 ± 0.025 | -0.003 ± 0.013 | -0.0175 ± 0.019 | 0.0015 ± 0.005 | 0.018 ± 0.013 | 0.0165 ± 0.022 | 0.0285 ± 0.018 | 0.029 ± 0.033 | -0.0285 ± 0.005 | -0.0115 ± 0.0021 | 0.0205 ± 0.0078 | 0.011 ± 0.03 | 0.005 ± 0.03 | -0.01 ± 0.0071 | -0.0025 ± 0.019 | 0.02 ± 0.037
7 | BE3C:CXCL8/IL-8 | 0.0105 ± 0.071 | 0.0265 ± 0.087 | 0.035 ± 0.048 | 0.012 ± 0.023 | 0.0285 ± 0.044 | 0.0355 ± 0.023 | 0.054 ± 0.058 | 0.0255 ± 0.071 | 0.0045 ± 0.047 | 0.0325 ± 0.12 | 0.055 ± 0.072 | 0.025 ± 0.035 | 0.0405 ± 0.0078 | 0.0565 ± 0.04 | -0.0065 ± 0.028 | 0.015 ± 0.099 | 0.0165 ± 0.044 | 0.0695 ± 0.071 | 0.0445 ± 0.073 | 0.021 ± 0.017 | 0.0165 ± 0.11 | 0.033 ± 0.024 | 0.0195 ± 0.023 | 0.013 ± 0.018 | -0.028 ± 0.083 | 0.0195 ± 0.06 | -0.019 ± 0.044 | -0.123 ± 0.0099 | -0.192 ± 0.013 | 0.0145 ± 0.063
